Our source for the binding values is article PMC3741148.

Sequences of proteins named here, by UniProt entry; tags and fusion partners are left off. Residues count along the entry.
UniProt P09727, residues 18-215: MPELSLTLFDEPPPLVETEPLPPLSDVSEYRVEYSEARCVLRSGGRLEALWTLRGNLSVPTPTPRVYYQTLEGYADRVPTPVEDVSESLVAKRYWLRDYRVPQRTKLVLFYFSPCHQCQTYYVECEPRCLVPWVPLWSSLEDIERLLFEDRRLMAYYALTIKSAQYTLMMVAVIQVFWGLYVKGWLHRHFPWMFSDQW

Results are given in words; binding and its absence hold for the method and conditions named. Binding seen in cells or lysates may run through a third protein. Some entries that bind do so weakly or less than the wild type.

The test has as its target T1, Derlin-1 (endogenous) (human (endogenous in U373MG and HeLa)) (UniProt Q9BUN8).
T1 sequence: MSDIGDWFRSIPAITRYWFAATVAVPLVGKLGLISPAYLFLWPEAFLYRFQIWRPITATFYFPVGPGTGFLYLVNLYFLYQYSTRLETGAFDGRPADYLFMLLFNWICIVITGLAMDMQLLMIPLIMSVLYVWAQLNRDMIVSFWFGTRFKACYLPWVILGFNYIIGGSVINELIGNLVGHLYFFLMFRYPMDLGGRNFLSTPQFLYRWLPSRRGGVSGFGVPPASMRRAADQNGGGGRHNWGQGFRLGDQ
Put plainly: co-IP; sequential co-immunoprecipitation from U373MG-US11 cells labelled with 35S-methionine/cysteine for 1 hr, lysed in 1% digitonin; first precipitation with the antibody to the bait, eluate in SDS/DTT, diluted 10-fold in 1% NP-40, second precipitation, SDS-PAGE, autoradiography.

For the substance “Human cytomegalovirus (HCMV) US11 (from UniProt P09727 18-215)”, the binding entry was “binds”.
